The target in experiment [1] is H3K9me2 peptide containing H3K4me2 modification (UniProt P59226). The experiment is described as follows: ITC. Background: Isothermal titration calorimetry measures the heat released or taken up as one component is titrated into another.
Experiment [2] has as its target H3K9me2 peptide containing H3K4me1 modification (UniProt P59226). The experiment can be described thus: ITC.
Experiment [3] concerns the target H3K9me2 peptide containing H3K4me3 modification (UniProt P59226). The experiment is described as follows: ITC.
Experiment [4] deals with T1, HA-SUVH2 (Arabidopsis thaliana) (UniProt O22781).
T1 sequence: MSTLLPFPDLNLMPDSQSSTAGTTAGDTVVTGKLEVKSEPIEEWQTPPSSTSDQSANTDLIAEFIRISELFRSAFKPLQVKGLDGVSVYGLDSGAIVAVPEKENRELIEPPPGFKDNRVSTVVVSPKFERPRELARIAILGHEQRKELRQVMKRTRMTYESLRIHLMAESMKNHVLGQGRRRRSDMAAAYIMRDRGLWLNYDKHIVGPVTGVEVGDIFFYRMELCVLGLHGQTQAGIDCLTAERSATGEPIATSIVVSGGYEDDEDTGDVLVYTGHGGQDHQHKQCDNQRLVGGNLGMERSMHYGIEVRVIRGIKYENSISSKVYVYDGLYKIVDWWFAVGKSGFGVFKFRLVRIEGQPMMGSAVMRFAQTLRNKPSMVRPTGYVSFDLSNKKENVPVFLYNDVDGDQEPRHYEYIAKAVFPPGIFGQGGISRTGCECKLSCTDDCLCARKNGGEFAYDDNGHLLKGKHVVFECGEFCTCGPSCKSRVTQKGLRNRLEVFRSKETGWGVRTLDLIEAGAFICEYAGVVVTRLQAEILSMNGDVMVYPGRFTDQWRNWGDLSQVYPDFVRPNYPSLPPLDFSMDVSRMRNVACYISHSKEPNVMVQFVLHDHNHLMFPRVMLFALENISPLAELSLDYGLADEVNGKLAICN
The experiment is described as follows: co-immunoprecipitation on Flag magnetic beads (figure legend).

Experiment [5] deals with T1, HA-SUVH2 (Arabidopsis thaliana). The experiment is described as follows: co-immunoprecipitation on Flag magnetic beads from Arabidopsis flowers; HA and Flag blots.

No constants are given. Whether binding was seen depends on the method and setting. For some assays here: Binding seen in cells or lysates may run through a third protein. Some results given as binding are weak or reduced against the parent protein; the word gives no strength. For some assays here: Sequences can lack the tags named with a protein.

B1: SHH1 SAWADEE domain (residues 125-258) (protein)
chain: ADLAFEAKSARDYAWYDVSSFLTYRVLRTGELEVRVRFSGFDNRHDEWVNVKTSVRERSIPVEPSECGRVNVGDLLLCFQEREDQALYCDGHVLNIKRGIHDHARCNCVFLVRYELDNTEESLGLERICRRPEE
In the case of B1, the binding result in experiment [1], in experiment [2] and in experiment [3] was “binds” throughout.

B2: DRD1-Flag (protein, not shown: small tags and cut ends)
chain: MGFVYIVMTGYYKNVHKRKQNQVDDGPEAKRVKSSAKVIDYSNPFAVSNMLEALDSGKFGSVSKELEEIADMRMDLVKRSIWLYPSLAYTVFEAEKTMDNQQVVEGVINLDDDDDDDTDVEKKALCVVPSSSEIVLLDSDDEDNERQRPMYQFQSTLVQHQKNQGDVTPLIPQCSFEEVDLGRGKEMPSAIKAIVEGQTSRGKVLPIENGVVNEKGVYVGVEEDDSDNESEAADEDLGNIWNEMALSIECSKDVARETSHKEKADVVEDCEHSFILKDDMGYVCRVCGVIEKSILEIIDVQFTKAKRNTRTYASETRTKRFGESDNELKFSEEGLMIGGLAAHPTHAAEMKPHQIEGFQFLCSNLVADDPGGCIMAHAPGSGKTFMIISFMQSFLAKYPQAKPLVVLPKGILPTWKKEFVRWQVEDIPLLDFYSAKAENRAQQLSILKQWMEKKSILFLGYQQFSTIVCDDTTDSLSCQEILLKVPSILILDEGHTPRNEDTNLLQSLAQVQTPRKVVLSGTLYQNHVKEVFNILNLVRPKFLKLDTSKSAVKRILAYTPCDVRGRLTGSNSDMASMFNETVEHTLQKSEDFTVKIKVIQDLREMTKKVLHYYKGDFLDELPGLADFTVVLNLSPKQLNEVKKLRREKRKFKVSAVGSAIYLHPKLKVFSDKSDDVSDTTMDEMVEKLDLNEGVKAKFFLNLINLCDSAGEKLLVFSQYLIPLKFLERLAALAKGWKLGKEVFVLTGNTSSEQREWSMETFNSSPDAKIFFGSIKACGEGISLVGASRILILDVPLNPSVTRQAIGRAFRPGQKKMVHAYRLIAGSSPEEEDHNTCFKKEVISKMWFEWNEYCGYQNFEVETIDVDEAGDTFLESPALREDIRVLYKR
On to B2, for which the binding entry in experiment [4] and in experiment [5] was “binds” in each case.
